System: IVT-synthesized p53
Assay: Effect of peptide on IVT translation of p53 (DO-1 western blot)
Conditions: 100 μM biotin-peptide vs DMSO blank

VRHQHVGATILGWK [Pap-VRH]
levels of mutant p53 translation: no changes

From patent US9517252B2, “p53 activating peptides” (Agency for Science, Technology and Research, priority 2011, dated 2016)
